Data from publication doi:10.1101/2025.11.17.688780.

T1: Brn1-V5 (S. cerevisiae) (UniProt P38170)
T1 sequence: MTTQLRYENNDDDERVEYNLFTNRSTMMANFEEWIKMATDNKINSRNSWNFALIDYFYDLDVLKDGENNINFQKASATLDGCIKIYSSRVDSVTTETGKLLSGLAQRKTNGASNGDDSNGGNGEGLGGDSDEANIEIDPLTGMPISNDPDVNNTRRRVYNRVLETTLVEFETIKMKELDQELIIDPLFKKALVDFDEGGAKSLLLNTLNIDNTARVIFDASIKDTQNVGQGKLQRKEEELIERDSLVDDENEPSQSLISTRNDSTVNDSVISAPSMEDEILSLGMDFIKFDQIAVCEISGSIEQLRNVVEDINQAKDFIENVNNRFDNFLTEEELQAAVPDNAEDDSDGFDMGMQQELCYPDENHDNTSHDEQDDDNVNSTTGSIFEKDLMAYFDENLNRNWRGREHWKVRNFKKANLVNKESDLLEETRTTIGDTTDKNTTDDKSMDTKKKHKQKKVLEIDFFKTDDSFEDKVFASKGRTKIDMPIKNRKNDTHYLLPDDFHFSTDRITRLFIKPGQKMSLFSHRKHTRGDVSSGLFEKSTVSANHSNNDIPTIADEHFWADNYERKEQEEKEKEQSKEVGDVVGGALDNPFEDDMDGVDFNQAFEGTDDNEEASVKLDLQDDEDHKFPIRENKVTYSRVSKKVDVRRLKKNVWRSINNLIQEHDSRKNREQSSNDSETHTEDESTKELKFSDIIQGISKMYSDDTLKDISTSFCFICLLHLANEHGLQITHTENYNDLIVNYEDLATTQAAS

B1: Ycg1 (protein, UniProt Q06680 1-1035)
chain: MQDPDGIDINTKIFNSVAEVFQKAQGSYAGHRKHIAVLKKIQSKAVEQGYEDAFNFWFDKLVTKILPLKKNEIIGDRIVKLVAAFIASLERELILAKKQNYKLTNDEEGIFSRFVDQFIRHVLRGVESPDKNVRFRVLQLLAVIMDNIGEIDESLFNLLILSLNKRIYDREPTVRIQAVFCLTKFQDEEQTEHLTELSDNEENFEATRTLVASIQNDPSAEVRRAAMLNLINDNNTRPYILERARDVNIVNRRLVYSRILKSMGRKCFDDIEPHIFDQLIEWGLEDRELSVRNACKRLIAHDWLNALDGDLIELLEKLDVSRSSVCVKAIEALFQSRPDILSKIKFPESIWKDFTVEIAFLFRAIYLYCLDNNITEMLEENFPEASKLSEHLNHYILLRYHHNDISNDSQSHFDYNTLEFIIEQLSIAAERYDYSDEVGRRSMLTVVRNMLALTTLSEPLIKIGIRVMKSLSINEKDFVTMAIEIINDIRDDDIEKQEQEEKIKSKKINRRNETSVDEEDENGTHNDEVNEDEEDDNISSFHSAVENLVQGNGNVSESDIINNLPPEKEASSATIVLCLTRSSYMLELVNTPLTENILIASLMDTLITPAVRNTAPNIRELGVKNLGLCCLLDVKLAIDNMYILGMCVSKGNASLKYIALQVIVDIFSVHGNTVVDGEGKVDSISLHKIFYKVLKNNGLPECQVIAAEGLCKLFLADVFTDDDLFETLVLSYFSPINSSNEALVQAFAFCIPVYCFSHPAHQQRMSRTAADILLRLCVLWDDLQSSVIPEVDREAMLKPNIIFQQLLFWTDPRNLVNQTGSTKKDTVQLTFLIDVLKIYAQIEKKEIKKMIITNINAIFLSSEQDYSTLKELLEYSDDIAENDNLDNVSKNALDKLRNNLNSLIEEINERSETQTKDENNTANDQYSSILGNSFNKSSNDTIEHAADITDGNNTELTKTTVNISAVDNTTEQSNSRKRTRSEAEQIDTSKNLENMSIQDTSTVAKNVSFVLPDEKSDAMSIDEEDKDSESFSEVC
B2: Smc4 (protein, UniProt Q12267 1-1418)
chain: MSDSPLSKRQKRKSAQEPELSLDQGDAEEDSQVENRVNLSENTPEPDLPALEASYSKSYTPRKLVLSSGENRYAFSQPTNSTTTSLHVPNLQPPKTSSRGRDHKSYSQSPPRSPGRSPTRRLELLQLSPVKNSRVELQKIYDRHQSSSKQQSRLFINELVLENFKSYAGKQVVGPFHTSFSAVVGPNGSGKSNVIDSMLFVFGFRANKMRQDRLSDLIHKSEAFPSLQSCSVAVHFQYVIDESSGTSRIDEEKPGLIITRKAFKNNSSKYYINEKESSYTEVTKLLKNEGIDLDHKRFLILQGEVENIAQMKPKAEKESDDGLLEYLEDIIGTANYKPLIEERMGQIENLNEVCLEKENRFEIVDREKNSLESGKETALEFLEKEKQLTLLRSKLFQFKLLQSNSKLASTLEKISSSNKDLEDEKMKFQESLKKVDEIKAQRKEIKDRISSCSSKEKTLVLERRELEGTRVSLEERTKNLVSKMEKAEKTLKSTKHSISEAENMLEELRGQQTEHETEIKDLTQLLEKERSILDDIKLSLKDKTKNISAEIIRHEKELEPWDLQLQEKESQIQLAESELSLLEETQAKLKKNVETLEEKILAKKTHKQELQDLILDLKKKLNSLKDERSQGEKNFTSAHLKLKEMQKVLNAHRQRAMEARSSLSKAQNKSKVLTALSRLQKSGRINGFHGRLGDLGVIDDSFDVAISTACPRLDDVVVDTVECAQHCIDYLRKNKLGYARFILLDRLRQFNLQPISTPENVPRLFDLVKPKNPKFSNAFYSVLRDTLVAQNLKQANNVAYGKKRFRVVTVDGKLIDISGTMSGGGNHVAKGLMKLGTNQSDKVDDYTPEEVDKIERELSERENNFRVASDTVHEMEEELKKLRDHEPDLESQISKAEMEADSLASELTLAEQQVKEAEMAYVKAVSDKAQLNVVMKNLERLRGEYNDLQSETKTKKEKIKGLQDEIMKIGGIKLQMQNSKVESVCQKLDILVAKLKKVKSASKKSGGDVVKFQKLLQNSERDVELSSDELKVIEEQLKHTKLALAENDTNMNETLNLKVELKEQSEQLKEQMEDMEESINEFKSIEIEMKNKLEKLNSLLTYIKSEITQQEKGLNELSIRDVTHTLGMLDDNKMDSVKEDVKNNQELDQEYRSCETQDESEIKDAETSCDNYHPMNIDETSDEVSRGIPRLSEDELRELDVELIESKINELSYYVEETNVDIGVLEEYARRLAEFKRRKLDLNNAVQKRDEVKEQLGILKKKRFDEFMAGFNIISMTLKEMYQMITMGGNAELELVDSLDPFSEGVTFSVMPPKKSWRNITNLSGGEKTLSSLALVFALHKYKPTPLYVMDEIDAALDFRNVSIVANYIKERTKNAQFIVISLRNNMFELAQQLVGVYKRDNRTKSTTIKNIDILNRT
B3: Smc2 L567K, HA tagged (protein, UniProt P38989 1-1170)
chain: MKVEELIIDGFKSYATRTVITDWDPQFNAITGLNGSGKSNILDAICFVLGIASMSTVRASSLQDLIYKRGQAGVTKASVTIVFDNTDKSNSPIGFTNSPQISVTRQVVLGGTSKYLINGHRAPQQSVLQLFQSVQLNINNPNFLIMQGKITKVLNMKPSEILSLIEEAAGTKMFEDRREKAERTMSKKETKLQENRTLLTEEIEPKLEKLRNEKRMFLEFQSTQTDLEKTERIVVSYEYYNIKHKHTSIRETLENGETRMKMLNEFVKKTSEEIDSLNEDVEEIKLQKEKELHKEGTISKLENKENGLLNEISRLKTSLSIKVENLNDTTEKSKALESEIASSSAKLIEKKSAYANTEKDYKMVQEQLSKQRDLYKRKEELVSTLTTGISSTGAADGGYNAQLAKAKTELNEVSLAIKKSSMKMELLKKELLTIEPKLKEATKDNELNVKHVKQCQETCDKLRARLVEYGFDPSRIKDLKQREDKLKSHYYQTCKNSEYLKRRVTNLEFNYTKPYPNFEASFVHGVVGQLFQIDNDNIRYATALQTCAGGRLFNVVVQDSQTATQLKERGRLRKRVTIIPLDKIYTRPISSQVLDLAKKIAPGKVELAINLIRFDESITKAMEFIFGNSLICEDPETAKKITFHPKIRARSITLQGDVYDPEGTLSGGSRNTSESLLVDIQKYNQIQKQIETIQADLNHVTEELQTQYATSQKTKTIQSDLNLSLHKLDLAKRNLDANPSSQIIARNEEILRDIGECENEIKTKQMSLKKCQEEVSTIEKDMKEYDSDKGSKLNELKKELKLLAKELEEQESESERKYDLFQNLELETEQLSSELDSNKTLLHNHLKSIESLKLENSDLEGKIRGVEDDLVTVQTELNEEKKRLMDIDDELNELETLIKKKQDEKKSSELELQKLVHDLNKYKSNTNNMEKIIEDLRQKHEFLEDFDLVRNIVKQNEGIDLDTYRERSKQLNEKFQELRKKVNPNIMNMIENVEKKEAALKTMIKTIEKDKMKIQETISKLNEYKRETLVKTWEKVTLDFGNIFADLLPNSFAKLVPCEGKDVTQGLEVKVKLGNIWKESLIELSGGQRSLIALSLIMALLQFRPAPMYILDEVDAALDLSHTQNIGHLIKTRFKGSQFIVVSLKEGMFANANRVFRTRFQDGTSVVSIM
B4: Smc2 L665R, HA tagged (protein, UniProt P38989 1-1170)
chain: MKVEELIIDGFKSYATRTVITDWDPQFNAITGLNGSGKSNILDAICFVLGIASMSTVRASSLQDLIYKRGQAGVTKASVTIVFDNTDKSNSPIGFTNSPQISVTRQVVLGGTSKYLINGHRAPQQSVLQLFQSVQLNINNPNFLIMQGKITKVLNMKPSEILSLIEEAAGTKMFEDRREKAERTMSKKETKLQENRTLLTEEIEPKLEKLRNEKRMFLEFQSTQTDLEKTERIVVSYEYYNIKHKHTSIRETLENGETRMKMLNEFVKKTSEEIDSLNEDVEEIKLQKEKELHKEGTISKLENKENGLLNEISRLKTSLSIKVENLNDTTEKSKALESEIASSSAKLIEKKSAYANTEKDYKMVQEQLSKQRDLYKRKEELVSTLTTGISSTGAADGGYNAQLAKAKTELNEVSLAIKKSSMKMELLKKELLTIEPKLKEATKDNELNVKHVKQCQETCDKLRARLVEYGFDPSRIKDLKQREDKLKSHYYQTCKNSEYLKRRVTNLEFNYTKPYPNFEASFVHGVVGQLFQIDNDNIRYATALQTCAGGRLFNVVVQDSQTATQLLERGRLRKRVTIIPLDKIYTRPISSQVLDLAKKIAPGKVELAINLIRFDESITKAMEFIFGNSLICEDPETAKKITFHPKIRARSITLQGDVYDPEGTRSGGSRNTSESLLVDIQKYNQIQKQIETIQADLNHVTEELQTQYATSQKTKTIQSDLNLSLHKLDLAKRNLDANPSSQIIARNEEILRDIGECENEIKTKQMSLKKCQEEVSTIEKDMKEYDSDKGSKLNELKKELKLLAKELEEQESESERKYDLFQNLELETEQLSSELDSNKTLLHNHLKSIESLKLENSDLEGKIRGVEDDLVTVQTELNEEKKRLMDIDDELNELETLIKKKQDEKKSSELELQKLVHDLNKYKSNTNNMEKIIEDLRQKHEFLEDFDLVRNIVKQNEGIDLDTYRERSKQLNEKFQELRKKVNPNIMNMIENVEKKEAALKTMIKTIEKDKMKIQETISKLNEYKRETLVKTWEKVTLDFGNIFADLLPNSFAKLVPCEGKDVTQGLEVKVKLGNIWKESLIELSGGQRSLIALSLIMALLQFRPAPMYILDEVDAALDLSHTQNIGHLIKTRFKGSQFIVVSLKEGMFANANRVFRTRFQDGTSVVSIM

molecular target: T1, Brn1-V5 (S. cerevisiae); assay: affinity purification with mass spectrometry

binding, binds:
B1, B2, B3, B4

These are yes or no findings as the source states them, for the method shown. In cells and extracts the contact can be indirect. A yes stands for co-enrichment or nearness to the bait. Other partners may have been found. Sequences can lack the tags named with a protein.
